Data reported in patent US9921225B2, “Phenyl glyoxal probes” (The Scripps Research Institute, priority 2012, dated 2018).

Assay: Amino acid selectivity of Rh-PG (LC-MS) and cysteine cross-reactivity
Procedure: Amino Acid Selectivity of Rh-PG: Various amino acids (100 mM; i.e., citrulline, Arg, Lys, Asp, Glu, Thr, Ser, Tyr, Gln, Asn, Cys, Met, His, cystine, and homocitrulline) were prepared in 50 mM HEPES (250 μL; pH 7.6). To this was added 20% TCA and 0.1 mM Rh-PG and samples were incubated at 37° C. for 30 min. Samples were analyzed by LC-MS (H2O:ACN+0.1% formic acid gradient) and the ratio of unmodified to amino acid modified Rh-PG determined.
Peptide Analysis of Cysteine Cross-Reactivity: To test the hypothesis that the Cys-Rh-PG complex was not stable at neutral pH, a peptide containing both citrulline and Cys (i.e., Ac-AHACitACARA-NH2) was synthesized using standard Fmoc strategies and purified by reverse-phase HPLC. Three aliquots of this peptide (0.5 mM) were prepared in 50 mM HEPES (pH 7.6). Samples were treated as follows; 1. untreated; 2. treated with PG (5 mM) and 20% TCA; and 3. treated with PG (5 mM) and 20% TCA. Samples were incubated at 37° C. for 30 min. Samples 1 and 2 were analyzed directly by MALDI-TOF. Sample 3 was first neutralized to a pH of ˜7.5 using 3 M NaOH, followed by MALDI-TOF analysis.

| Structure (SMILES) | amino acids modified by Rh-PG (acidic conditions (20% TCA), 37° C., 30 min, excess amino acid) | selectivity versus Cys (gel-based method with neutralization step prior to gel loading) [fold] | reaction with the Rh-PG probe (selectivity analysis) |
| --- | --- | --- | --- |
| CC(C(=O)Nc1cccc(C(=O)C=O)c1)n1cc(CNC(=O)c2ccc3c(c2)C2(OC3=O)c3ccc(N(C)C)cc3Oc3cc(N(C)C)ccc32)nn1 (stereo not drawn) [Rh-PG, N-(3-Glyoxyl)phenylamino)propionyl)-1H-1,2,3-triazol-4-yl)methyl-5(6)-carboxamidotetramethyl rhodamine hydrate] | reacted selectively with citrulline, homo-citrulline, and cysteine | ≥ 650 |  |
| NC(=O)[C@H](CCCN=C(N)CCl)NC(=O)c1ccccc1 [Cl-amidine] |  |  | does not react with the probe |
